Values from PubChem BioAssay AID504774 (Drosophila RNAi Screening Center, 2011)
The deposit covers about 23,000 reagents; shown is a random part of those with a known target gene and a result. 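Values are quantile-normalised luminescence on an arbitrary scale; higher means more cells surviving MMS.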 Reagents against one gene are numbered here. Names joined by + are all predicted targets of the reagent. Not all columns of the deposit are shown.

Purpose: 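Knock-downs that shift viability of MMS-exposed cells relative to untreated ones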 (primary screen)
System: Drosophila Kc167 cells
Reagent: long dsRNA against Drosophila genes, about 0.25 µg dsRNA per well
Duration: about 6 days: 3 days knock-down, then 3 days with or without MMS
Treatment: methyl methanesulphonate 0.004% (w/v) for 3 days after knock-down
Detection: 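Viability in wells given MMS, read as ATP luminescence, normalised by quantiles plate by plate and averaged across replicates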
Reading the numbers: mean viability with MMS: higher = more surviving cells after MMS

target	dsRNA no.	mean viability with MMS
pre-mod(mdg4)-Z + mod(mdg4) + pre-mod(mdg4)-T	1	3.65e6
pre-mod(mdg4)-Z + mod(mdg4) + pre-mod(mdg4)-T	2	3.46e6
Vha68-2	1	3.49e6
CG42712 (retired record)	1	3.45e6
Hsc70-5	1	3.53e6
Mtpbeta	1	3.54e6
mys	1	3.51e6
CARPB	1	3.53e6
CARPB	2	3.78e6
CG13116	1	3.60e6
CG13116	2	3.46e6
repo	1	3.27e6
repo	2	3.55e6
HemK1	1	3.40e6
CG15461	1	3.66e6
Ran-like	1	3.60e6
mAcon2	1	3.47e6
CG14370	1	3.56e6
CG8661	1	3.29e6
nonC	1	3.54e6
nonC	2	3.47e6
GstD9	1	3.79e6
CG13018	1	3.59e6
Ccp84Ae	1	3.60e6
CG13359	1	3.77e6
CG8841	1	3.56e6
fd19B	1	3.59e6
VAChT + ChAT	1	3.44e6
ND-B12	1	3.57e6

Continued (3 carried over from the part before).
target	dsRNA no.	mean viability with MMS
fd19B	1	3.59e6
VAChT + ChAT	1	3.44e6
ND-B12	1	3.57e6
CG15880	1	3.65e6
Drsl3	1	3.64e6
gsb-n	1	3.53e6
gsb-n	2	3.59e6
CG14073	1	3.42e6
CG10911	1	3.66e6
emei	1	3.76e6
emei	2	3.10e6
CG3342	1	3.53e6
Rab9D + Rab9Fa + Rab9E	1	3.64e6
CG15144	1	3.51e6
smid	1	3.72e6
CG9166	1	3.60e6
mtd	1	3.73e6
mtd	2	3.61e6
mtd	3	3.53e6
Spase22-23	1	3.69e6
how	1	3.10e6
mdy	1	3.54e6
mdy	2	3.64e6
CG1764	1	3.58e6
CG13898	1	3.63e6
CG32733 (retired record)	1	3.56e6
CG15336	1	3.57e6
CG7655	1	3.71e6
Mco1	1	3.82e6
CG14237	1	3.43e6
CG14237	2	3.71e6
CG14422	1	3.46e6
CG31759	1	3.39e6
Vps35	1	3.50e6
CG14500	1	3.63e6
CG7457	1	3.60e6
DEF8	1	3.53e6
Pde8	1	3.63e6
CG17560	1	3.46e6
CG31900 (retired record)	1	3.20e6
Or98P	1	3.61e6
dmt	1	3.16e6
